Assay results from patent US6323203A, “Composition and method for treating diabetes” (Beyer; Camille F., priority 2000, dated 2001).
Entries after “also recorded” stand apart in the source; their conditions may differ. For at least one compound, name, drawing or mass did not settle the structure.

Experiments:
[1] = Single-blind, three-phase crossover study of single oral doses: blood analyses of metabolic, hormonal and electrolyte parameters in 8 normal male subjects; type: in vivo, human
Method: A three-phase study, where single oral doses of placebo, followed in one week by 900 mg of pyrazinoylguanidine (PZG), followed in three weeks by 300 mg of pyrazinoic acid (PZA), involving normal male subjects, was carried out to compare and contrast metabolic effects of single doses of PZG and PZA. A purpose of the study was to determine whether the metalbolic effects observed after 3 and also 21 days of PZG administration in patients with renal disease or with diabetes also occurred after a single oral dose. […]
Eight male nonsmoking subjects aged 24-32 participated. They were normal by history, physical exam and routine laboratory analysis of blood and urine.
This was a single-blind, three-phase crossover study beginning after a 10-hour fast at 8 a.m., designated time 0 (control), when the first venipuncture occurred. In phase I, three capsules of lactose were given orally, followed by venipunctures 2 and 4 h later. In phase II, 1 week later, after a control blood specimen drawn at 8 a.m., PZG (900 mg) was given orally and blood specimens taken 2 and 4 h thereafter. In phase III, 3 weeks later, after a control blood specimen drawn at 8 a.m., PZA (300 mg) was given orally and blood specimens taken 2 and 4 h later.
Each phase consisted of taking three capsules, each containing 300 mg. In phase I, all three capsules were of lactose; in phase II, all three were PZG; and in phase III, two capsules were lactose and one PZA. All capsules appeared indistinguishable and were given to each subject who swallowed them with water in the presence of an investigator.
Once obtained, blood specimens were immediately spun. Refrigerated serum or plasma was analyzed within 24 h for glucose, insulin, electrolytes, blood urea nitrogen, creatinine, liver function tests, triglycerides, total cholesterol, high-density lipoprotein (HDL) cholesterol, low-density lipoprotein (LDL) cholesterol, very-low-density lipoprotein (VLDL) cholesterol, free fatty acids, and fibrinogen.
Repeated measures of analysis of variance were used to compare each subject's placebo, PZG and PZA phase. Two-tailed Student t-tests were performed between groups. All results are reported as means ±SD. Statistical significance was considered when p<0.05. The results are illustrated in Tables 1-4.

[2] = cited from earlier work
[3] = 3 weeks, 600 mg bid po, cited from earlier work
[4] = system: prostaglandin D2 synthesis; details: compared with PZA and nicotinic acid; cited from earlier work

NC(N)=NC(=O)c1cnccn1 [PZG, pyrazinoylguanidine]
effect on mean values for serum glucose, insulin, C-peptide, triglycerides and free fatty acids ([1]; 0, 2 and 4 hours after administration): decreased | effect on insulin, C-peptide, free fatty acids and triglyceride serum concentrations ([1]; at equivalent plasma concentrations of PZG and PZA): reduced | antilipolytic action ([1]; compared with PZA and nicotinic acid): shares the antilipolytic actions of PZA and nicotinic acid | effect on plasma renin activity ([1]; single oral dose, present investigation): slight, but not significant increase | effect on LDL, HDL and total cholesterol ([1]; single oral dose, within 4 h): not altered systematically | effect on very-low-density lipoprotein (VLDL) ([1]; single oral dose, within 4 h): decreased; also recorded: significantly reduced | effect on plasma norepinephrine ([1]; single oral dose, not statistically significant): marked elevation | effect on hypertensive blood pressure ([2]; in vivo): decreasing hypertensive blood pressure | effect on urea blood levels ([2]; in vivo): lowering urea blood levels | effect on serum concentration of triglycerides and cholesterol ([2]; patients with renal insufficiency): decreased | effect on plasma renin and aldosterone activity ([2]; previous study (Chambers 1992)): usually does not alter plasma renin and aldosterone activity, or decreases both slightly | effect on normal glucose serum concentrations [3]: no effect | effect on hydrochlorothiazide-induced increase of serum glucose and insulin ([3]; oral glucose tolerance test): blocking the increased serum glucose and insulin concentrations | induction of prostaglandin D2 synthesis [4]: not their induction of prostaglandin D2 synthesis
